The other results are listed elsewhere or left out.
Molecular target: OsWRKY34 (Oryza sativa, UniProt Q0JBA9 1-250)
Experiment: protein-binding microarray (RPBM); PBS, 2% BSA, 51.3 ng/ul salmon testes DNA, 50 uM zinc acetate, 200 nM TF, 25 C, 1 h; high values mean tight binding
Conditions: protein: recombinant; tags: N-terminal polyhistidine and DsRed monomer fusion (pET32a); label: CyDye5-dUTP incorporated in the synthesized complementary strand; 3' TTTTT single-stranded linker to array surface; dsDNA, one strand shown
In short: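 The binding signal is fluorescence intensity per array feature (arbitrary units). Readings came from an Axon 4000B scanner after a washed, 2% BSA-blocked, double-stranded custom Agilent array had been incubated for 1 h at 25 °C with 200 nM protein and 50 µM zinc acetate. The protein was a Ni–NTA-purified transcription factor fused N-terminally to polyhistidine and DsRed, expressed in E. coli BL21-CodonPlus.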

The chains behind the UniProt entries cited, without tags or fusion partners.
UniProt Q0JBA9, entry or part of it: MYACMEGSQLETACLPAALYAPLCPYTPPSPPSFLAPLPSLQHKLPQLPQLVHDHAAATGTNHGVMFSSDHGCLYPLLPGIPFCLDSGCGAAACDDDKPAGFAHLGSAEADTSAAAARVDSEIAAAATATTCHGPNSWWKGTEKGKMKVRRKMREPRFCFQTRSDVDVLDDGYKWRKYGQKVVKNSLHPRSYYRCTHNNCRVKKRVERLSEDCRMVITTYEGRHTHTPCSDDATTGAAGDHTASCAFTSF

Row | Sequence | binding signal
1 | CGTATTTATCATTTATTTTGCAGGTGTGACTTGGTTTATTCGGAGTCACCTAGTGCAG | 12000 fluorescence intensity (a.u.)
2 | CACTAATCTTCTCTCTCCACTTTTATCTTCTTAAAATATGCGGAGTCACCTAGTGCAG | 8150 fluorescence intensity (a.u.)
3 | TACATGTGCTGTCTCAGTCGCTATTGCTGCCCATGGCTTTCGGAGTCACCTAGTGCAG | 9360 fluorescence intensity (a.u.)
4 | ACAATGCCATCCATCGATCTCCTCGCGCACACCGTTGATACGGAGTCACCTAGTGCAG | 8630 fluorescence intensity (a.u.)
5 | CCAGCGGTCGAACCGTTGACCCGGTGGTTCGTCCGGTGAACGGAGTCACCTAGTGCAG | 8200 fluorescence intensity (a.u.)
6 | CAATTTTTTTTTTGTTCTGGTCCACTGTCCTCACAAGTTCCGGAGTCACCTAGTGCAG | 9000 fluorescence intensity (a.u.)
7 | CGATCCGCTTGCAGGCGGCGGCGGCGGGAGGGTGGTGGGGCGGAGTCACCTAGTGCAG | 18000 fluorescence intensity (a.u.)
8 | GGTTCGCCATGGATGGGTGGGCGGCGAGCTGCTGCTGCTTCGGAGTCACCTAGTGCAG | 8590 fluorescence intensity (a.u.)
9 | GCGAACTCCGAGCGCGGAGGTTGAGGCGGCGGCGAGCGTGCGGAGTCACCTAGTGCAG | 9820 fluorescence intensity (a.u.)
10 | CACCCTCTCCTCTCGTCTCGCGGTTGCTTGGGTGCTTGTACGGAGTCACCTAGTGCAG | 8170 fluorescence intensity (a.u.)
11 | TGGGTTGGATTTATTTATTTATTTATTATTTTAGTATATACGGAGTCACCTAGTGCAG | 12200 fluorescence intensity (a.u.)
12 | ATTTCTCCACCGGTGCTAGTTTTAGCTTATACTTAATTAACGGAGTCACCTAGTGCAG | 9080 fluorescence intensity (a.u.)
13 | TCCTTTGTACACGCCACGGCAGAGGCTCTTTCTGTCTATACGGAGTCACCTAGTGCAG | 11000 fluorescence intensity (a.u.)
14 | GCCATCCCTGCAACAGTCGCGATGCATCATGCACCTGCCCCGGAGTCACCTAGTGCAG | 8800 fluorescence intensity (a.u.)
15 | TGCCGATTCTTTTTTTTCCTCTCAAACACGATCGTGGATGCGGAGTCACCTAGTGCAG | 9100 fluorescence intensity (a.u.)
16 | TTGCACTATATATTTTCCCATTGACATTCGTTGTAGCCGTCGGAGTCACCTAGTGCAG | 9030 fluorescence intensity (a.u.)
17 | TAATCCCTATATATGCTTCCTTCCATTCACGTTCGATTCTCGGAGTCACCTAGTGCAG | 8960 fluorescence intensity (a.u.)
18 | CGCCGCTGCAAACCTCCGTCTCCTCCGGCTCCGGCTGCTCCGGAGTCACCTAGTGCAG | 8880 fluorescence intensity (a.u.)
19 | GATCCATACGTTTTCTAAGTTAGTAAATGTGCAATTTTTTCGGAGTCACCTAGTGCAG | 8290 fluorescence intensity (a.u.)
20 | GTTGGTTTTGGGGTTTTGGAGCGTTGCGGATTGCCACGGCCGGAGTCACCTAGTGCAG | 10300 fluorescence intensity (a.u.)
21 | TCCCAACCCACCGTTCCATTCTCTCGAGCTCACCCCGTCACGGAGTCACCTAGTGCAG | 10500 fluorescence intensity (a.u.)
22 | AAAATTTTCTTGTGTTTTGCAATACTCTGTTTTACACATACGGAGTCACCTAGTGCAG | 9280 fluorescence intensity (a.u.)
23 | TTGTTTTAACCTGGCCGTGCCTGTGTGAGTCCTGGTTATTCGGAGTCACCTAGTGCAG | 9160 fluorescence intensity (a.u.)
24 | GTTCGGTTGTACCTTATTTTTTTCTTGGCTCTTGTTGTCCCGGAGTCACCTAGTGCAG | 12400 fluorescence intensity (a.u.)
25 | TCTCATGCTTGTTCTGGGGATCTGCTGGTGGGTTTGGAGTCGGAGTCACCTAGTGCAG | 10700 fluorescence intensity (a.u.)
26 | GCGCGGATCCATCTCCTAGCTAGCGCACCATCTATGGATCCGGAGTCACCTAGTGCAG | 8450 fluorescence intensity (a.u.)
27 | CAATTGCGTCTCCTTCGTATAGTAGTTTAGTCGGGTTAGTCGGAGTCACCTAGTGCAG | 9730 fluorescence intensity (a.u.)

Part of the list above, as comma-separated lines:
Row,Sequence,binding signal
17,TAATCCCTATATATGCTTCCTTCCATTCACGTTCGATTCTCGGAGTCACCTAGTGCAG,8960 fluorescence intensity (a.u.)
18,CGCCGCTGCAAACCTCCGTCTCCTCCGGCTCCGGCTGCTCCGGAGTCACCTAGTGCAG,8880 fluorescence intensity (a.u.)
19,GATCCATACGTTTTCTAAGTTAGTAAATGTGCAATTTTTTCGGAGTCACCTAGTGCAG,8290 fluorescence intensity (a.u.)
20,GTTGGTTTTGGGGTTTTGGAGCGTTGCGGATTGCCACGGCCGGAGTCACCTAGTGCAG,10300 fluorescence intensity (a.u.)

Next part:

Row | Sequence | binding signal
28 | CCTTAATTCCGCACCTCGACCTTATCCTTTCCCACTTTCCCGGAGTCACCTAGTGCAG | 11100 fluorescence intensity (a.u.)
29 | GCCCCATTGCCTGGCGCTGTTTTTGCCACCGACCTGCTTTCGGAGTCACCTAGTGCAG | 8700 fluorescence intensity (a.u.)
30 | GGGGTGGACTGGGGTGTTTGGCTGCGTGAGTGCGGAGCGGCGGAGTCACCTAGTGCAG | 8920 fluorescence intensity (a.u.)
31 | AAATGTGAATGATGTTTATTTTGTCTAGTTTTACTGTTAACGGAGTCACCTAGTGCAG | 8510 fluorescence intensity (a.u.)
32 | AAACATCTCACACCACAACTCCACCACCACTCCTTCCAAGCGGAGTCACCTAGTGCAG | 8740 fluorescence intensity (a.u.)
33 | CCGTTGACCACAAACGAACACAAGATCCATGCATCCGGGCCGGAGTCACCTAGTGCAG | 8050 fluorescence intensity (a.u.)
34 | TATCCTTCTCGTCTTCTCGTTAATTTTTCCGGCAGCAACGCGGAGTCACCTAGTGCAG | 9730 fluorescence intensity (a.u.)
35 | GACCGCAGTTTCGCTGCTTTCGTCGTCTTCCTCACCGTTCCGGAGTCACCTAGTGCAG | 12000 fluorescence intensity (a.u.)
36 | CATTGGACTGCATATTAATTTGAGTATTCTGTTTCTCATTCGGAGTCACCTAGTGCAG | 9190 fluorescence intensity (a.u.)
37 | CTCCTCTGTCCCAGCTCAAGCTTTCGTCTTCGTCTTCGCCCGGAGTCACCTAGTGCAG | 9050 fluorescence intensity (a.u.)
38 | CCTTTGCTCTATCTCGTTTTTCTGCATCTGCAGCATCTCACGGAGTCACCTAGTGCAG | 15400 fluorescence intensity (a.u.)
39 | CATTACCGACTGACTACTAAATTTCGAGTCCTATTGATATCGGAGTCACCTAGTGCAG | 9460 fluorescence intensity (a.u.)
40 | TGTTCACCTCTCCGGCGACGAGATGGTCCCAACCTGCAGCCGGAGTCACCTAGTGCAG | 8190 fluorescence intensity (a.u.)
41 | CCCACCACCGCAACACCATCACCAACCAGCCTTTTTTTCTCGGAGTCACCTAGTGCAG | 10200 fluorescence intensity (a.u.)
42 | CATAAAAAATCTAACGTCCGCTTTTTTTTTATTTTTTCCTCGGAGTCACCTAGTGCAG | 8540 fluorescence intensity (a.u.)
43 | GGGACATGTTATATATGGTTTTCCGGTTGAAGGACGAAAACGGAGTCACCTAGTGCAG | 8160 fluorescence intensity (a.u.)
44 | TGCACACTGGCCAGCCATACTTGTGCAGTTGTGCCCACAACGGAGTCACCTAGTGCAG | 9220 fluorescence intensity (a.u.)
45 | CTCCGTTTGTAAATATTTGACGCCGTTGACTTTTTAAAATCGGAGTCACCTAGTGCAG | 22700 fluorescence intensity (a.u.)
46 | TCTTGTTTCTGCAGTTGTCCAACTGGTCTTCTCATGGCCGCGGAGTCACCTAGTGCAG | 8360 fluorescence intensity (a.u.)
47 | TCAGCAGACACACACCCAGCTTCATCAATCCACCCACCTCCGGAGTCACCTAGTGCAG | 9180 fluorescence intensity (a.u.)
48 | ACAAGTTGCTATATTTTTTTTTCGTGTGGGGATGTGAGGACGGAGTCACCTAGTGCAG | 10100 fluorescence intensity (a.u.)
49 | GAGGGAGAGAATAAAGAGAAGTGGGGTCTTGAGGAGGAAGCGGAGTCACCTAGTGCAG | 8560 fluorescence intensity (a.u.)
50 | GCCCACGTCCTTTTGACCTGCTGCGCGTAGAAGTGACGCACGGAGTCACCTAGTGCAG | 10100 fluorescence intensity (a.u.)
51 | GCCCACCGGCCCATTTATTTTTCCTACGATTTTCTAATTTCGGAGTCACCTAGTGCAG | 8170 fluorescence intensity (a.u.)
52 | GACGAGCACACGCTTCCTCTCCATCTCTGCTTCTGCTCTCCGGAGTCACCTAGTGCAG | 11300 fluorescence intensity (a.u.)
53 | CCTCTCCAATGATTCTTTGCTCTTTTTTTTTCTCTCATTCCGGAGTCACCTAGTGCAG | 10300 fluorescence intensity (a.u.)
54 | CGTGCACTCACTTGTCGTCAGTTTACACATACGTTCAGCACGGAGTCACCTAGTGCAG | 9260 fluorescence intensity (a.u.)

Source: publication PMC7819943, “Rice protein-binding microarrays: a tool to detect cis-acting elements near promoter regions in rice”
